± gives the standard deviation of the averaged measurements. Values are relative to the signal before dosing, not to a vehicle control; the signal also falls without drug.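 Fibroblast labels denote human fibroblasts, mainly primary ones from uterus (C12385, HUF), lung (H6013), bone (Hs27A), adrenal (HADF) and skin (WS1), plus mammary HMF and breast cancer-associated Hs343T. Cancer cells are basal-like or mesenchymal-like triple-negative breast cancer lines. A hit is a response shift exceeding 3x replicate standard deviation. The tissue of the other fibroblasts is not given here.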
Test system: Hs578T
Experiment: relative JC-1 red fluorescence (viability) vs pre-drug, coculture with fibroblast (fraction); higher = more viable cancer cells
Conditions: 100 µM
Protocol: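 JC-1 labelled TNBC cells cocultured 1:1 (1,500 cells each) with CellTrace Violet stained primary or stromal fibroblasts in 384-well plates in FluoroBrite medium, treated with one of 42 anticancer drugs at 0.1, 1, 10 or 100 uM. JC-1 red fluorescence (mitochondrial integrity in cancer cells only) was read by plate reader every 8 h for 72 h. Values are normalised to each well's pre-drug value. The stock of one drug was tenfold lower, so its dose labels may be too high.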

CO[C@H]1C[C@@H]2CC[C@@H](C)[C@@](O)(O2)C(=O)C(=O)N2CCCC[C@H]2C(=O)O[C@H]([C@H](C)C[C@@H]2CC[C@@H](O)[C@H](OC)C2)CC(=O)[C@H](C)/C=C(\C)[C@@H](O)[C@@H](OC)C(=O)[C@H](C)C[C@H](C)/C=C/C=C/C=C/1C [Rapamycin]
Conditions	relative JC-1 red fluorescence
8 h	0.91 ± 0.073
16 h	0.89 ± 0.1
24 h	0.879 ± 0.087
32 h	0.791 ± 0.075
40 h	0.703 ± 0.09
48 h	0.603 ± 0.077
56 h	0.562 ± 0.067
64 h	0.523 ± 0.021
72 h	0.54 ± 0.03

relative JC-1 red fluorescence
Conditions	8 h	16 h	24 h	32 h	40 h	48 h	56 h	64 h	72 h
coculture fibroblast: C12385	0.891 ± 0.019	0.728 ± 0.033	0.9186 ± 0.0081	0.788 ± 0.1	0.822 ± 0.11	0.652 ± 0.088	0.534 ± 0.093	0.39 ± 0.041	0.356 ± 0.0073
coculture fibroblast: H6013	0.844 ± 0.046	0.869 ± 0.099	0.821 ± 0.15	0.734 ± 0.18	0.618 ± 0.16	0.544 ± 0.15	0.462 ± 0.18	0.476 ± 0.25	0.485 ± 0.25
coculture fibroblast: H6019	0.822 ± 0.11	0.703 ± 0.13	0.667 ± 0.13	0.622 ± 0.14	0.574 ± 0.14	0.487 ± 0.14	0.419 ± 0.15	0.33 ± 0.13	0.27 ± 0.062
coculture fibroblast: H6076	0.889 ± 0.047	0.771 ± 0.069	0.827 ± 0.08	0.785 ± 0.064	0.722 ± 0.025	0.708 ± 0.069	0.723 ± 0.17	0.645 ± 0.12	0.644 ± 0.07
coculture fibroblast: H6231	0.85256 ± 0.00028	0.831 ± 0.13	0.898 ± 0.073	0.8 ± 0.13	0.875 ± 0.11	0.799 ± 0.12	0.669 ± 0.11	0.625 ± 0.0058	0.65 ± 0.017
coculture fibroblast: HADF	0.893 ± 0.053	0.922 ± 0.037	0.836 ± 0.015	0.741 ± 0.014	0.656 ± 0.022	0.582 ± 0.039	0.464 ± 0.087	0.483 ± 0.14	0.502 ± 0.15
coculture fibroblast: HCFa	0.874 ± 0.051	0.952 ± 0.033	0.913 ± 0.12	0.792 ± 0.14	0.653 ± 0.15	0.564 ± 0.14	0.472 ± 0.15	0.455 ± 0.24	0.444 ± 0.27
coculture fibroblast: HCPF	0.886 ± 0.017	0.823 ± 0.049	0.772 ± 0.04	0.725 ± 0.05	0.657 ± 0.035	0.609 ± 0.024	0.554 ± 0.03	0.443 ± 0.018	0.3642 ± 0.0014
coculture fibroblast: HHSteC	0.798 ± 0.08	0.782 ± 0.1	0.693 ± 0.12	0.598 ± 0.12	0.466 ± 0.084	0.415 ± 0.075	0.442 ± 0.076	0.479 ± 0.068	0.476 ± 0.064
coculture fibroblast: HMF	0.884 ± 0.08	0.907 ± 0.088	0.893 ± 0.084	0.871 ± 0.075	0.795 ± 0.087	0.737 ± 0.096	0.695 ± 0.11	0.589 ± 0.13	0.564 ± 0.13
coculture fibroblast: HPFa	0.891 ± 0.065	0.894 ± 0.088	0.756 ± 0.12	0.661 ± 0.14	0.666 ± 0.17	0.716 ± 0.2	0.728 ± 0.21	0.742 ± 0.22	0.708 ± 0.22
coculture fibroblast: HUF	0.785 ± 0.048	0.778 ± 0.081	0.753 ± 0.047	0.626 ± 0.012	0.567 ± 0.095	0.549 ± 0.17	0.558 ± 0.18	0.579 ± 0.17	0.593 ± 0.15
coculture fibroblast: Hs27A	0.855 ± 0.067	0.832 ± 0.03	0.755 ± 0.087	0.796 ± 0.078	0.805 ± 0.19	0.7 ± 0.18	0.58 ± 0.15	0.495 ± 0.013	0.502 ± 0.0093
coculture fibroblast: Hs343T	0.878 ± 0.013	0.821 ± 0.068	0.766 ± 0.088	0.699 ± 0.089	0.593 ± 0.084	0.522 ± 0.079	0.467 ± 0.072	0.389 ± 0.05	0.397 ± 0.026
coculture fibroblast: WS1	0.794 ± 0.032	0.6428 ± 0.003	0.5932 ± 0.0033	0.5323 ± 0.0014	0.44 ± 0.0089	0.331 ± 0.0039	0.247 ± 0.0098	0.226 ± 0.0062	0.248 ± 0.016
